{
  "source": "patent US20220304936A1",
  "about": "“DRUG-POLYMER AMORPHOUS SOLID DISPERSIONS USING LINEAR POLY(ACRYLIC ACID) POLYMERS” (LUBRIZOL ADVANCED MATERIALS, INC., priority 2019, published 2022)",
  "key": {"[1]": {"assay": "Physical form and Tg of formulations by XRPD and/or DSC", "format": "physicochemical", "details": "as prepared", "description": "The physical form of the product is identified visually (e.g., solid powder) and by XRPD and/or DSC (to assess amorphous or crystalline state). Tg values are estimates from DSC curves.\nX-ray Powder Diffraction (XRPD) is performed with a Panalytical X'Pert^3 Powder XRPD. FIGS. 8-10 show XRPD plots for various formulations made using ITZ and PAA-8. In FIG. 8, plots for ITZ alone (Neat IZT, Formulation F25), a physical mixture of 15% ITZ and 85% PAA (PM 15%, Formulation F26), and a spray-dried solid dispersion of 15% ITZ and 85% PAA (ASD 15%, Formulation F2), are shown. In FIG. 9, plots for ITZ alone (Neat IZT, Formulation F25), a physical mixture of 30% ITZ and 70% PAA (PM 30%, Formulation F27), and a spray-dried solid dispersion of 30% ITZ and 70% PAA (ASD 30%, Formulation F3), are shown. In FIG. 10, plots for ITZ alone (Neat IZT, Formulation F25), a physical mixture of 50% ITZ and 50% PAA (PM 50%, Formulation F28), and a spray-dried solid dispersion of 50% ITZ and 50% PAA (ASD 50%, Formulation F5), are shown.\nXRPD is performed with Si zero background holders. The 2-theta position is performed with a Panalytical Si reference standard disc. The XRPD instrument configuration is Bragg-Brentano geometry.\nDifferential Scanning calorimetry (DSC) is performed with a Mettler-Toldeo DSC-1 instrument (no modulated DSC software) using a sample amount of 5-10 mg. […]"}, "[2]": {"details": "model APIs; cited from earlier work"}},
  "note": "For at least one compound, name, drawing or mass did not settle the structure.",
  "data": [
    {"smiles": "CCC(C)n1ncn(-c2ccc(N3CCN(c4ccc(OCC5COC(Cn6cncn6)(c6ccc(Cl)cc6Cl)O5)cc4)CC3)cc2)c1=O", "note": "[Itraconazole, 1-(butan-2-yl)-4-{4-[4-(4-{[(2R, 4S)-2-(2,4-dichlorophenyl)-2-(1H-1,2,4-triazol-1-ylmethyl)-1,3-dioxolan-4-yl]methoxylphenyl)piperazin-1-yl]phenyl}-4,5-dihydro-1H-1,2,4-triazol-5-one]", "values": [
      {"measurement": "Form", "setting": "[1]", "value": "Crystalline"},
      {"measurement": "Glass transition temperature, Tg (° C.)", "setting": "[2]", "value": 52, "unit": "°C"}
    ]}
  ]
}
